In the supplement of paper PMC6078165:
The reference is the same well before dosing, and untreated signal decays as well.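 Labels refer to human fibroblasts, largely primary: uterine (C12385, HUF), lung (H6013), bone (Hs27A), adrenal (HADF), skin (WS1), plus mammary HMF and breast cancer-associated Hs343T. Cancer lines are basal-like or mesenchymal-like triple-negative breast cancer. The paper counts as hits responses shifting over 3x the replicate standard deviation. The tissue of the other fibroblasts is not given here.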

System: MDAMB231
Experiment: relative JC-1 red fluorescence (viability) vs pre-drug, coculture with fibroblast (fraction); higher = more viable cancer cells
Procedure: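 JC-1 labelled TNBC cells cocultured 1:1 (1,500 cells each) with CellTrace Violet stained primary or stromal fibroblasts in 384-well plates in FluoroBrite medium, treated with one of 42 anticancer drugs at 0.1, 1, 10 or 100 uM. JC-1 red fluorescence (mitochondrial integrity in cancer cells only) was read by plate reader every 8 h for 72 h. Values are normalised to each well's pre-drug value. The stock of one drug was tenfold lower, so its dose labels may be too high.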

CC(C)(C#N)c1cc(Cn2cncn2)cc(C(C)(C)C#N)c1 [Anastrozole]
relative JC-1 red fluorescence
Settings	8 h	16 h	24 h	32 h	40 h	48 h	56 h	64 h	72 h
0.1 µM, coculture fibroblast: C12385	0.784	0.724	0.657	0.627	0.568	0.54	0.498	0.488	0.475
0.1 µM, coculture fibroblast: H6013	0.894	0.819	0.771	0.74	0.7	0.681	0.659	0.637	0.604
0.1 µM, coculture fibroblast: H6019	0.7201	0.643	0.5865	0.5451	0.483	0.4592	0.419	0.4	0.367
0.1 µM, coculture fibroblast: H6076	0.87293	0.774	0.7	0.662	0.616	0.574	0.541	0.522	0.506
0.1 µM, coculture fibroblast: H6231	0.899	0.77	0.704	0.649	0.593	0.56	0.523	0.5	0.477
0.1 µM, coculture fibroblast: HADF	0.88	0.828	0.784	0.735	0.692	0.642	0.629	0.604	0.557
0.1 µM, coculture fibroblast: HCFa	0.8809	0.804	0.7434	0.705	0.65	0.592	0.564	0.537	0.481
0.1 µM, coculture fibroblast: HCPF	0.882	0.742	0.662	0.613	0.553	0.509	0.468	0.436	0.408
0.1 µM, coculture fibroblast: HHSteC	0.899	0.882	0.845	0.811	0.79	0.763	0.734	0.73	0.692
0.1 µM, coculture fibroblast: HMF	0.879	0.782	0.702	0.664	0.6035	0.564	0.525	0.501	0.486
0.1 µM, coculture fibroblast: HPFa	0.9189	0.866	0.817	0.755	0.734	0.693	0.635	0.602	0.542
0.1 µM, coculture fibroblast: HUF	0.8536	0.702	0.75	0.63	0.575	0.563	0.513	0.519	0.498
0.1 µM, coculture fibroblast: Hs5	0.885	0.8011	0.7269	0.678	0.622	0.562	0.514	0.475	0.447
0.1 µM, coculture fibroblast: Hs27A	0.885	0.8092	0.771	0.753	0.69	0.628	0.627	0.601	0.551
0.1 µM, coculture fibroblast: Hs343T	0.8825	0.765	0.687	0.633	0.573	0.526	0.475	0.45	0.422
0.1 µM, coculture fibroblast: WS1	0.726	0.668	0.565	0.518	0.46	0.428	0.375	0.359	0.332
1 µM, coculture fibroblast: C12385	0.7446	0.696	0.6655	0.602	0.539	0.512	0.475	0.472	0.465
1 µM, coculture fibroblast: H6013	0.9016	0.827	0.758	0.734	0.682	0.659	0.633	0.611	0.577
1 µM, coculture fibroblast: H6019	0.7333	0.632	0.638	0.566	0.523	0.511	0.467	0.47	0.438
1 µM, coculture fibroblast: H6076	0.918	0.826	0.755	0.732	0.689	0.642	0.602	0.583	0.565
1 µM, coculture fibroblast: H6231	0.945	0.852	0.751	0.69	0.631	0.593	0.546	0.518	0.487
1 µM, coculture fibroblast: HADF	0.8761	0.8295	0.771	0.74	0.712	0.6961	0.65626	0.644	0.594
1 µM, coculture fibroblast: HCFa	0.8909	0.818	0.761	0.72	0.657	0.615	0.573	0.536	0.498
1 µM, coculture fibroblast: HCPF	0.8691	0.764	0.686	0.655	0.599	0.553	0.522	0.5	0.479
1 µM, coculture fibroblast: HHSteC	0.911	0.848	0.8262	0.79023	0.75	0.72	0.672	0.648	0.607
1 µM, coculture fibroblast: HMF	0.92	0.841	0.776	0.741	0.691	0.661	0.632	0.611	0.583
1 µM, coculture fibroblast: HPFa	0.96852	0.897	0.835	0.766	0.732	0.671	0.605	0.5729	0.503
1 µM, coculture fibroblast: HUF	0.847	0.76	0.808	0.676	0.611	0.604	0.544	0.544	0.526
1 µM, coculture fibroblast: Hs5	0.8987	0.819	0.786	0.763	0.729	0.686	0.672	0.649	0.63
1 µM, coculture fibroblast: Hs27A	0.825	0.771	0.738	0.727	0.685	0.654	0.628	0.616	0.541
1 µM, coculture fibroblast: Hs343T	0.888	0.779	0.687	0.649	0.576	0.526	0.465	0.438	0.397
1 µM, coculture fibroblast: WS1	0.7393	0.638	0.643	0.538	0.496	0.481	0.433	0.437	0.419
10 µM, coculture fibroblast: C12385	0.799	0.745	0.68	0.663	0.605	0.577	0.533	0.528	0.506
10 µM, coculture fibroblast: H6013	0.9	0.85	0.818	0.806	0.772	0.75	0.747	0.72	0.682
10 µM, coculture fibroblast: H6019	0.794	0.733	0.696	0.673	0.636	0.624	0.577	0.559	0.516
10 µM, coculture fibroblast: H6076	0.935	0.846	0.771	0.738	0.689	0.644	0.608	0.578	0.549
10 µM, coculture fibroblast: H6231	0.911	0.799	0.736	0.681	0.632	0.599	0.549	0.524	0.503
10 µM, coculture fibroblast: HADF	0.913	0.882	0.846	0.8	0.761	0.698	0.691	0.68	0.631
10 µM, coculture fibroblast: HCFa	0.887	0.8268	0.7768	0.741	0.6774	0.62	0.607	0.569	0.522
10 µM, coculture fibroblast: HCPF	0.951	0.845	0.763	0.735	0.681	0.631	0.584	0.551	0.52
10 µM, coculture fibroblast: HHSteC	0.894	0.839	0.7839	0.737	0.694	0.667	0.62	0.596	0.561
10 µM, coculture fibroblast: HMF	0.891	0.8103	0.731	0.687	0.625	0.584	0.539	0.516	0.482
10 µM, coculture fibroblast: HPFa	0.966	0.8958	0.834	0.789	0.764	0.718	0.674	0.643	0.582
10 µM, coculture fibroblast: HUF	0.8726	0.717	0.681	0.59	0.522	0.497	0.442	0.426	0.41
10 µM, coculture fibroblast: Hs5	0.9	0.81	0.7316	0.681	0.617	0.555	0.511	0.478	0.45
10 µM, coculture fibroblast: Hs27A	0.9013	0.856	0.817	0.798	0.725	0.647	0.654	0.625	0.579
10 µM, coculture fibroblast: Hs343T	0.877	0.782	0.707	0.671	0.624	0.571	0.508	0.489	0.453
10 µM, coculture fibroblast: WS1	0.7905	0.718	0.646	0.6179	0.57	0.537	0.492	0.473	0.44
100 µM, coculture fibroblast: C12385	0.797	0.7873	0.718	0.739	0.695	0.673	0.638	0.634	0.616
100 µM, coculture fibroblast: H6013	0.9085	0.869	0.851	0.86	0.842	0.815	0.819	0.792	0.76
100 µM, coculture fibroblast: H6019	0.827	0.787	0.74	0.784	0.772	0.766	0.725	0.714	0.676
100 µM, coculture fibroblast: H6076	0.8961	0.82	0.802	0.7905	0.7694	0.736	0.721	0.718	0.706
100 µM, coculture fibroblast: H6231	0.947	0.8987	0.8391	0.796	0.7574	0.7314	0.6857	0.6674	0.6305
100 µM, coculture fibroblast: HADF	0.907	0.881	0.851	0.841	0.807	0.76	0.7687	0.7594	0.724
100 µM, coculture fibroblast: HCFa	0.91	0.875	0.868	0.864	0.838	0.799	0.7584	0.72274	0.6759
100 µM, coculture fibroblast: HCPF	0.9283	0.8484	0.795	0.778	0.733	0.697	0.6665	0.639	0.608
100 µM, coculture fibroblast: HHSteC	0.9213	0.8986	0.8643	0.831	0.809	0.785	0.762	0.745	0.711
100 µM, coculture fibroblast: HMF	0.9223	0.8515	0.797	0.7803	0.742	0.717	0.6771	0.662	0.643
100 µM, coculture fibroblast: HPFa	0.9578	0.9354	0.8894	0.849	0.83	0.798	0.746	0.727	0.679
100 µM, coculture fibroblast: HUF	0.859	0.789	0.768	0.7004	0.6569	0.635	0.5765	0.561	0.539
100 µM, coculture fibroblast: Hs5	0.918	0.854	0.8068	0.774	0.747	0.702	0.6683	0.6425	0.617
100 µM, coculture fibroblast: Hs27A	0.899	0.856	0.832	0.81	0.767	0.696	0.718	0.698	0.657
100 µM, coculture fibroblast: Hs343T	0.92	0.849	0.837	0.822	0.794	0.764	0.725	0.711	0.691
100 µM, coculture fibroblast: WS1	0.769	0.7291	0.68	0.645	0.6167	0.5975	0.5591	0.5485	0.515
